The values below come from paper PMC8710834.

This data set has as its target PtrERF9 (His-PtrERF9) (Poncirus trifoliata (L.) Raf.) (UniProt A0ACB8N348). As to the kind of experiment: EMSA. Particulars: EMSA: 5 mM MgCl2, 50 mM KCl, 10 mM EDTA, 2.5% glycerol, 50 ng/uL poly(dI-dC), 0.05% NP-40, 6.5% native PAGE, pH and temperature not stated, recombinant protein, protein details: His (vector pHMGWA). In general terms: In EMSA bound probe runs differently from free probe, usually more slowly.

The mark [1] stands for this setting: shift reduced dose-dependently by unlabelled competitor.

The exact form of at least one protein or probe is not confirmed. A negative result means that nothing was seen under these conditions.

For the sequence “AGGACGGTGGCTGCTTTAGGTGGCTACATATAAATGTCTT (double strand) [mP2 probe]”, the binding result was “no binding”.
Still for that read-out and setting: next, “CCATCCAATTCCAACGATCCTCCAGCTTATAATAACAACA (double strand) [mP1 probe]”: “no binding”.
As for “CCATCCAATTCCAACGAGCCGCCAGCTTATAATAACAACA (double strand) [P1 probe (PtrGSTU17 promoter GCC-box)]”, the binding result under setting [1] is “binds”.
On to “AGGACGGTGGCTGCTTTAGGCGGCTACATATAAATGTCTT (double strand) [P2 probe (PtrACS1 promoter GCC-box)]”, for which the binding result under setting [1] is reported as “binds”.
